Assay [1] has as its target His6-Rfa2(1–205) (budding yeast) (UniProt P26754). The assay can be described thus: co-purification (Ni-NTA, HiTrap Heparin, Superdex200); soluble extract of E. coli co-expressing tagless Rfa1, His6-Rfa2 and tagless Rfa3 applied to Ni-NTA; 20 mM Tris-HCl pH 8.0, 350 mM NaCl; eluted with 400 mM imidazole.
Assay [2] concerns the target His6-Rfa2(1–273) (budding yeast) (UniProt P26754). Described as above.

The chains behind the UniProt entries cited, without tags or fusion partners. Where a name states a change or a piece, a line headed by the entry shows the natural chain unless it says otherwise. Residues count along the entry.
UniProt P26754: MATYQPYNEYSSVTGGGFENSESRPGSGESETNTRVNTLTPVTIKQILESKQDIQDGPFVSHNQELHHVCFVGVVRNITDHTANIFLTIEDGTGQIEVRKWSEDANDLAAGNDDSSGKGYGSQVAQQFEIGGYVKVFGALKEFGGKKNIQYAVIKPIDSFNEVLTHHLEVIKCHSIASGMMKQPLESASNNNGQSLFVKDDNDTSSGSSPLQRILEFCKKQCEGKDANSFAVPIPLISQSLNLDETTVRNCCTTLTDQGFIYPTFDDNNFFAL
His6-Rfa2(1–205): residues 1-205 of P26754
UniProt P26755: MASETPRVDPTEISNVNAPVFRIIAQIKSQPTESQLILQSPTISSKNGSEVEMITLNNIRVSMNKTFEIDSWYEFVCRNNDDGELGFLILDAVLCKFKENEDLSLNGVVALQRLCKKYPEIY
UniProt P22336: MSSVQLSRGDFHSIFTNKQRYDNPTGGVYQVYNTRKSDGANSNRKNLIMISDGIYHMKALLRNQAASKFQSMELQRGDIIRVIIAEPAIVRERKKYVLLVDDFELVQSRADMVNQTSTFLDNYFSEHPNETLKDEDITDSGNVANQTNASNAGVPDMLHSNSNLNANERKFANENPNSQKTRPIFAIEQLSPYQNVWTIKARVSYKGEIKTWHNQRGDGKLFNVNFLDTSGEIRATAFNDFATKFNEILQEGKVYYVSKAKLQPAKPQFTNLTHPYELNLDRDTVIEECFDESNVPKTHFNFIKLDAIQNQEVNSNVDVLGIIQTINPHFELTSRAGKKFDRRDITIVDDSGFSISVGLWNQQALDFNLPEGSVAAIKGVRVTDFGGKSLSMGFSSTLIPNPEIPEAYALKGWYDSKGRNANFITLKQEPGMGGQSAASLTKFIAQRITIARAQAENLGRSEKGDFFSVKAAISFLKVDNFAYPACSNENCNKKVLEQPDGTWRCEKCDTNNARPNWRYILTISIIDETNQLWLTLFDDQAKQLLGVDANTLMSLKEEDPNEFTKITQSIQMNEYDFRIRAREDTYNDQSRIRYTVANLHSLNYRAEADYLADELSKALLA

No constants are given. Whether binding was seen depends on the method and setting. Some entries that bind do so weakly or less than the wild type.

Take Rfa3(1–122) (from UniProt P26755 1-122): the binding result in assay [1] and in assay [2] was “binds” throughout.
For Rfa1(1–621) (from UniProt P22336 1-621), the binding result in assay [1] and in assay [2] was “binds” throughout.

The record behind these values is PMC8591536, “DNA asymmetry promotes SUMO modification of the single‐stranded DNA‐binding protein RPA” (The EMBO Journal, 2021).
